Laboratory results from the supplement of paper PMC10849652.
The other results are listed elsewhere or left out.

Sequences of proteins named here, by UniProt entry; tags and fusion partners are left off. A change or cut given only in a name is not applied to a line headed by its entry.
UniProt O43156, whole entry, looked up: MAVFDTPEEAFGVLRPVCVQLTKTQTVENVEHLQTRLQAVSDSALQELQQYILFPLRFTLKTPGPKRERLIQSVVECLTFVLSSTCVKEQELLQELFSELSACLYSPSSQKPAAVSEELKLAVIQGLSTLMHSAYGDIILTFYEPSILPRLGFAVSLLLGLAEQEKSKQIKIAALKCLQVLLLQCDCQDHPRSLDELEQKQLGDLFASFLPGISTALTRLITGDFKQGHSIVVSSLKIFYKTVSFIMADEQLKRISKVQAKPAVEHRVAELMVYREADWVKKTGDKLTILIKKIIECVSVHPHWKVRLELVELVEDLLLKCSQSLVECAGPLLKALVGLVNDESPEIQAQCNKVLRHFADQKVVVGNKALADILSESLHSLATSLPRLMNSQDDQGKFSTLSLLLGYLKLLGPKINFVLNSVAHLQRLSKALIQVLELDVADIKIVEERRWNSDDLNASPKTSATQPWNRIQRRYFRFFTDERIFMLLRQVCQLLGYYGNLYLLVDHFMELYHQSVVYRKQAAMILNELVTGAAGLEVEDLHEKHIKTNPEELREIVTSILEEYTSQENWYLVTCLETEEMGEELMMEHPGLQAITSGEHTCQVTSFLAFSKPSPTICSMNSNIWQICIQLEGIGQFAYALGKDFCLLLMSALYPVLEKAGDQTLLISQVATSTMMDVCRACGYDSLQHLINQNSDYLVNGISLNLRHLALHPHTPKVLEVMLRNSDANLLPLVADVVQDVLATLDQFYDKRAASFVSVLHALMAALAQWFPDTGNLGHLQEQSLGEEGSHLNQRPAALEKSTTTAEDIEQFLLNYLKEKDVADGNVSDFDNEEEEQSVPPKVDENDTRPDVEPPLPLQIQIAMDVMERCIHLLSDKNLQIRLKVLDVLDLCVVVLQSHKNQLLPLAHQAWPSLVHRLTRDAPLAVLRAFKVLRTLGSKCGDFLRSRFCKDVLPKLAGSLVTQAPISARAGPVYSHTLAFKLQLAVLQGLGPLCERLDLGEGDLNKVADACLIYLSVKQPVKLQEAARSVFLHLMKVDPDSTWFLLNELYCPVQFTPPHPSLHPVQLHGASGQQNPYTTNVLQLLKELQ
UniProt Q96Q11: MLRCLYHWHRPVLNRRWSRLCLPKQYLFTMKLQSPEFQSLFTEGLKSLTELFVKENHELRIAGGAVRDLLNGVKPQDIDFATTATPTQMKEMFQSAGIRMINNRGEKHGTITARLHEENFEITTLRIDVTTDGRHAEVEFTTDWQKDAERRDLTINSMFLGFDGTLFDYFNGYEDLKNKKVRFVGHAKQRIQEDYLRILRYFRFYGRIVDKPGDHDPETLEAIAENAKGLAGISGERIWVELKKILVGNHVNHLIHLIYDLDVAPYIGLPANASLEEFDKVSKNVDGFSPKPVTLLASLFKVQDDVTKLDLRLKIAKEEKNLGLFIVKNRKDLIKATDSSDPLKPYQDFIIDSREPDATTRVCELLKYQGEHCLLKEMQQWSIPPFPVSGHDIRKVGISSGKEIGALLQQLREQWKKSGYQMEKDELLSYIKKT
UniProt Q7Z6J9: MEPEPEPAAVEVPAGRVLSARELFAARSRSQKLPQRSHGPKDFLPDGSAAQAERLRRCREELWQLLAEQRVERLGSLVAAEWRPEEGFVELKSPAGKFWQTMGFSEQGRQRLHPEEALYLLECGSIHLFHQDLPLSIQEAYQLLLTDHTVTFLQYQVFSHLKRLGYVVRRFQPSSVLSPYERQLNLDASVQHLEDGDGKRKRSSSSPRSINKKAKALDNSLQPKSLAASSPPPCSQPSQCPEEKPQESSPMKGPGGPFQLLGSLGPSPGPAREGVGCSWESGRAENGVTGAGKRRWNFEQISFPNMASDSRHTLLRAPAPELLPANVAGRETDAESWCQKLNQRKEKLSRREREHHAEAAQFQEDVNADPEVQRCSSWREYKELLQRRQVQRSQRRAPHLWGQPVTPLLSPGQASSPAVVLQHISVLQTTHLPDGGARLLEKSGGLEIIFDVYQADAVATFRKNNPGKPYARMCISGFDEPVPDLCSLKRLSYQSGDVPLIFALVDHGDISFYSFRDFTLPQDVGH
UniProt Q15631: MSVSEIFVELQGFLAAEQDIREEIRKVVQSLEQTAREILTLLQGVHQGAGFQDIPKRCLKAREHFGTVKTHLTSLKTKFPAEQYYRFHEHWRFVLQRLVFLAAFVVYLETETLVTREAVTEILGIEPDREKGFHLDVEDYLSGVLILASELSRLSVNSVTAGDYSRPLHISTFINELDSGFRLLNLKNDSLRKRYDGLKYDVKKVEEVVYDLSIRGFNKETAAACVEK
UniProt Q6PID6, whole entry, looked up: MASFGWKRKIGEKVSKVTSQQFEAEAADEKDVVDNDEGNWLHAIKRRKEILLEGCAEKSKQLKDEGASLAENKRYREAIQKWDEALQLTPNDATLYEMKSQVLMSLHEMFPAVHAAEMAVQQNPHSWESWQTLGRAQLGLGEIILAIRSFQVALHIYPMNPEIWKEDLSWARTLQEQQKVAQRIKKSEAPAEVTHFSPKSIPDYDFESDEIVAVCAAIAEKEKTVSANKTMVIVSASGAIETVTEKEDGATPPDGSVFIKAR
UniProt Q15642: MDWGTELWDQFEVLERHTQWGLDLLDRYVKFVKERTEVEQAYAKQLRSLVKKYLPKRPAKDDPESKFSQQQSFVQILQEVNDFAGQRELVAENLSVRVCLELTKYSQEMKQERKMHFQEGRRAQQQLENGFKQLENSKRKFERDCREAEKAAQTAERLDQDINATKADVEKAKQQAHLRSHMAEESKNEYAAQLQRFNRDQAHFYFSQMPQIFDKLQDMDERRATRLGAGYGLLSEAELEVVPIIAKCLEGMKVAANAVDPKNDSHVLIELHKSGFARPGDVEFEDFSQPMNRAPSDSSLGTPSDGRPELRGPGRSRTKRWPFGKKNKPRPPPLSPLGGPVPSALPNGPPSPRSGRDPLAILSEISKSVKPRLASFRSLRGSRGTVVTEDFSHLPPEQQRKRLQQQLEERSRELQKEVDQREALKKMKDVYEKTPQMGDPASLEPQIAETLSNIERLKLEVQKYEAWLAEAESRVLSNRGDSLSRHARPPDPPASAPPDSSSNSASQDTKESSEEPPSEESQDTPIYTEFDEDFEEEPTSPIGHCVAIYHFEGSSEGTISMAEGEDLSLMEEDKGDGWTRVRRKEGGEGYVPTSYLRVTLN
UniProt O15164: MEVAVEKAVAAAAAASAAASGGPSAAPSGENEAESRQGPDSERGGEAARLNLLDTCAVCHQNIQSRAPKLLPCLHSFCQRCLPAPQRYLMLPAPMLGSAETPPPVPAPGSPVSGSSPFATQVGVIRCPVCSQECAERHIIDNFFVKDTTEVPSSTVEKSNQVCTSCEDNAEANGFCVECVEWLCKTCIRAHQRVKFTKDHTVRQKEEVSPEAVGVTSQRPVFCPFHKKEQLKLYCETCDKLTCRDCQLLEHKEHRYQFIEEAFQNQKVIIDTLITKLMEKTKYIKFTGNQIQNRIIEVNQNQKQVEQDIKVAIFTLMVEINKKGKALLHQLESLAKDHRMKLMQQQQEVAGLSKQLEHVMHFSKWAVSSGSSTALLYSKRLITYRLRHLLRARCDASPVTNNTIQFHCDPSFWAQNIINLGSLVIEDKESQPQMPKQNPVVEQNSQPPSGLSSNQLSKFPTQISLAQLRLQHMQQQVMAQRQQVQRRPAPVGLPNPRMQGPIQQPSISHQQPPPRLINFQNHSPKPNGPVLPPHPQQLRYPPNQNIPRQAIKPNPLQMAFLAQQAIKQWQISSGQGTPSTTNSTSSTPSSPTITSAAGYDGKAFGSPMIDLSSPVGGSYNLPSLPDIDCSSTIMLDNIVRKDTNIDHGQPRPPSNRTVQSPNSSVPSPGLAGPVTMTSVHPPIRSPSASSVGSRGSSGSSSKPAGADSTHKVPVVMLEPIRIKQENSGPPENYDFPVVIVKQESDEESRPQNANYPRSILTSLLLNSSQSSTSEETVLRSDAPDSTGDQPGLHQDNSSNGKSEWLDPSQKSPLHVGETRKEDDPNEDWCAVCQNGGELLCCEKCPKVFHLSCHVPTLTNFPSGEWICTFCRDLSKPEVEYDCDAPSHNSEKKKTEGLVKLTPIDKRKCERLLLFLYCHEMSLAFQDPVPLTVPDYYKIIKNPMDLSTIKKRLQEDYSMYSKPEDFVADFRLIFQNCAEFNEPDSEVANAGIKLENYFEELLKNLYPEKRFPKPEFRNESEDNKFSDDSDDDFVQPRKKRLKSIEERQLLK
UniProt Q9NXH9: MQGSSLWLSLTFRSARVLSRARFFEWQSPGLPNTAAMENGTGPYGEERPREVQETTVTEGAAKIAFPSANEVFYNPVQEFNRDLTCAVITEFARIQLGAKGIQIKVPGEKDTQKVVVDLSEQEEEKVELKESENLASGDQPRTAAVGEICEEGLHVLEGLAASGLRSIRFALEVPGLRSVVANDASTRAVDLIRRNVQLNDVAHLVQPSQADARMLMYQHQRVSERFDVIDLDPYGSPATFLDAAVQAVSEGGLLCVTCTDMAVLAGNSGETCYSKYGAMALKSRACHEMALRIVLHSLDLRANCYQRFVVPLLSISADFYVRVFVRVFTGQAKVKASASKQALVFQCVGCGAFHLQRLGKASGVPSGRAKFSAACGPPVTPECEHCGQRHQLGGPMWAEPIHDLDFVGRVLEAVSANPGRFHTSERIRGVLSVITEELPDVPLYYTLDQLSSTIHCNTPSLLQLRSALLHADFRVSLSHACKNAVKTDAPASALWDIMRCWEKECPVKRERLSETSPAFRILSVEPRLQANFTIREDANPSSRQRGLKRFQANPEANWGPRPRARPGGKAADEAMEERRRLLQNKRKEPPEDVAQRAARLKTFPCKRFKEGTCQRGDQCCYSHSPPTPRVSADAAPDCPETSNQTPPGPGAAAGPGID
UniProt Q13049: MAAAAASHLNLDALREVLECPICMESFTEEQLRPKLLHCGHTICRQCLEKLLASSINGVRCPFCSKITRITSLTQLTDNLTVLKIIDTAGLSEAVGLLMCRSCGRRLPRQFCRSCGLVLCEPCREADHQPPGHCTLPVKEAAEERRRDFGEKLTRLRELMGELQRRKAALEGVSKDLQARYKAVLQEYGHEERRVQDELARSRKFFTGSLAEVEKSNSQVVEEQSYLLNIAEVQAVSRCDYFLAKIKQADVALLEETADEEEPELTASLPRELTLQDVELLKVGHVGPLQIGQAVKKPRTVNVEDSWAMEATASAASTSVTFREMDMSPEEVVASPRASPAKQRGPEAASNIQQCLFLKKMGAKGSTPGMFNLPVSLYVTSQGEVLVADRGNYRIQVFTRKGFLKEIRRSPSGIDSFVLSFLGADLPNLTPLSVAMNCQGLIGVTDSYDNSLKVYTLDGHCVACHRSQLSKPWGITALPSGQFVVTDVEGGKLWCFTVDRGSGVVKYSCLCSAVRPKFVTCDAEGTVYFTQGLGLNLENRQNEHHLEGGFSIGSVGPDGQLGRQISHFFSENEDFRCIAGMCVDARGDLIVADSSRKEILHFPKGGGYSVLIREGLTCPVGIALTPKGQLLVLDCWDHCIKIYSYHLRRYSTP
UniProt Q13630: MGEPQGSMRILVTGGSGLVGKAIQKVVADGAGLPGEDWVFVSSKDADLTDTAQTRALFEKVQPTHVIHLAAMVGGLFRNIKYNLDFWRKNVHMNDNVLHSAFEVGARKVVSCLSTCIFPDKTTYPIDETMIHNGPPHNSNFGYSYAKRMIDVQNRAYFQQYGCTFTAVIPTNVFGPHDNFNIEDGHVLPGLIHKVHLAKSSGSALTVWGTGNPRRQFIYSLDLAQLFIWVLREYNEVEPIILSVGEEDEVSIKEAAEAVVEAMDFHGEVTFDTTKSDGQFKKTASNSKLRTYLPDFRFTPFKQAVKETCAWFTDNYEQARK
UniProt Q14166: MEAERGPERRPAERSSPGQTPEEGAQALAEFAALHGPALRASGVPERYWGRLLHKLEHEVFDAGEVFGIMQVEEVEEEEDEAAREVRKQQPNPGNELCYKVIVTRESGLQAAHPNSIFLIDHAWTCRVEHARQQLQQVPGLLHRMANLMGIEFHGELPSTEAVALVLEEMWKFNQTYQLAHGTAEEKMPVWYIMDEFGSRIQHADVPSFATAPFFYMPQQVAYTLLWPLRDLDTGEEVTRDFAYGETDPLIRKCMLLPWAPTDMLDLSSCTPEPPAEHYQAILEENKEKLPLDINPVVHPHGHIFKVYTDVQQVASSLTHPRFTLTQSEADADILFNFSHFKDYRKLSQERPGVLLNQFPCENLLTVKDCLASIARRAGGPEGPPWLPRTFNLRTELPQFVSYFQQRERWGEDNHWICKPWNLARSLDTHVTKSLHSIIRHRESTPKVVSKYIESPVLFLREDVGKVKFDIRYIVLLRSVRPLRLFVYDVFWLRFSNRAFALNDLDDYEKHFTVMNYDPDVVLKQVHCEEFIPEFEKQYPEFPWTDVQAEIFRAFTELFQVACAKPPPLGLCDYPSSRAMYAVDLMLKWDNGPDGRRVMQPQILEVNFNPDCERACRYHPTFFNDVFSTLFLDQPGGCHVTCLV

These targets were tested with CC1=C(C=C(C=C1)NC(=O)C2=CC(=CC=C2)C(C)(C)C#N)NC3=CC4=C(C=C3)N=CN(C4=O)C (assay: log2 fold change, soluble protein after heating vs DMSO (PISA); higher = thermal stabilisation; K562 lysate, 10 uM; active = over 0.2 and 3.5 SD of the protein, either way, in both replicates (recomputed)).
Outline: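 Dounce homogenisation of K562 pellets in PBS pH 7.4 with 1 mM MgCl2 produced a crude extract, used at 1 mg/mL protein. Exposure to 10 μM compound lasted 30 min, and aliquots were then heated for 3 min across 48°C-58°C, pooled and brought to 0.5% NP-40 at 4°C. The supernatant after 21,000xg for 90 min was quantified by TMTpro 16plex LC-MS/MS with channel sums equalised. Duplicate values are given as log-two fold change in thermal stability relative to solvent controls.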

Row | Target | log2 fold change
1 | TRAP1 (UniProt Q12931) | inactive: -0.022
2 | TTI1 (UniProt O43156) | inactive: 0.068
3 | TRNT1 (UniProt Q96Q11) | inactive: 0.023
4 | TSEN54 (UniProt Q7Z6J9) | inactive: 0.018
5 | TSN (UniProt Q15631) | inactive: 0.043
6 | TRMT2A (UniProt Q8IZ69) | inactive: -0.03
7 | TTC33 (UniProt Q6PID6) | inactive: 0.011
8 | TRMU (UniProt O75648) | inactive: -0.002
9 | TSC22D1 (UniProt Q15714) | inactive: 0.037
10 | TTC19 (UniProt Q6DKK2) | inactive: 0.02
11 | TRIM11 (UniProt Q96F44) | inactive: 0.005
12 | TRIP10 (UniProt Q15642) | inactive: 0.014
13 | TRIM24 (UniProt O15164) | inactive: -0.021
14 | TRIM28 (UniProt Q13263) | inactive: -0.017
15 | TRMT1 (UniProt Q9NXH9) | inactive: 0.03
16 | TRIM44 (UniProt Q96DX7) | inactive: -0.044
17 | TRAPPC6A isoform 2 (UniProt O75865) | inactive: 0.008
18 | TRIP10 isoform 2 (UniProt Q15642) | inactive: -0.004
19 | TRIM32 (UniProt Q13049) | inactive: -0.012
20 | TSG101 (UniProt Q99816) | inactive: 0.004
21 | TSTA3 (UniProt Q13630) | inactive: -0.004
22 | TRIP6 (UniProt Q15654) | inactive: 0.066
23 | TTLL12 (UniProt Q14166) | inactive: -0.008

Two records drawn at random from those above, as already listed:
Row | Target | log2 fold change
7 | TTC33 (UniProt Q6PID6) | inactive: 0.011
20 | TSG101 (UniProt Q99816) | inactive: 0.004
